Drawing on paper PMC8532147 (Journal of the American Chemical Society, 2021), this text covers isolated yield and conjugation yield for 6 substances.

The data set can be described thus: general procedure: Fmoc solid-phase peptide synthesis; DIC/Oxyma Pure. As to conditions: TFA salt; for isolated yield: whole synthesis; for conjugation yield: conjugation step.

Some peptides are written in HELM: one residue between dots, names in brackets for other building blocks, links after the first $.

For the substance “PEPTIDE1{[CAT].S.C.S.[CAT].[am]}$$$$V2.0”, the isolated yield is listed as 52% yield. Consider Dylight488-BPA-Ser-Cys-Ser-BPA-CONH2, for which the conjugation yield came out at 85%.

Turning to H-BPA-Ser-Cys-Ser-BPA-CONH2, the isolated yield runs as follows: (run 1) 41% yield; (run 2) 12% yield. As for H-BPA-Ser-Gly-Ser-BPA-CONH2, the isolated yield came to 34% yield. Dylight488-BPA-Ser-Gly-Ser-BPA-CONH2: the conjugation yield was 24%. H-Tyr-Ser-Cys-Ser-Tyr-CONH2: the isolated yield stood at 44% yield.
